This note sets out measurements from patent US20190248902A1.

Sequences of proteins named here, by UniProt entry; tags and fusion partners are left off. A change or cut given only in a name is not applied to a line headed by its entry.
UniProt P07307: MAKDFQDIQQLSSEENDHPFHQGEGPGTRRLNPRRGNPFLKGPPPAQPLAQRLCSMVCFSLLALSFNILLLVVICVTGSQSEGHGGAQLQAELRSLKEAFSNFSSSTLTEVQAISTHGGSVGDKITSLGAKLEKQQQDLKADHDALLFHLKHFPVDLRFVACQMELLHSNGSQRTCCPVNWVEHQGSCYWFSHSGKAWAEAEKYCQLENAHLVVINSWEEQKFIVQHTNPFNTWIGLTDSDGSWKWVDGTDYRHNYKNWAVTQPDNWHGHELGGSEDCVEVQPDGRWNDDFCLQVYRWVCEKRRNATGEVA

No constants are given. Whether binding was seen depends on the method and setting. In cells and extracts the contact can be indirect. Binding can be weak; no strength is given. Tags and fused reporters may be left off the sequences shown.

The target of this assay is T1, huASGR-1 (64-291) ECD with C-terminal 6xHis tag (human) (UniProt P07306).
T1 sequence: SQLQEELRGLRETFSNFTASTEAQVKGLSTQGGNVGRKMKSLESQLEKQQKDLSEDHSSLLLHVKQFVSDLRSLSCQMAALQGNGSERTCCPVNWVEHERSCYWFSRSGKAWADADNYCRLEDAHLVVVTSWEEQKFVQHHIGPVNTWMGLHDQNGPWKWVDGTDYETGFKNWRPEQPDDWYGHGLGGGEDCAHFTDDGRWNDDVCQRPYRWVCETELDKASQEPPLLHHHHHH
The assay is described as follows: conditioned media pre-incubated together; co-purified on Ni-Excel through the His tag of ASGR-1, then SEC.

Turning to “huASGR-2 (61-287) ECD without 6xHis tag (from UniProt P07307) (receptor)”, the binding result was “binds”.
